Measurements published in patent US20220112284A1 (Innovent, published 2022).
These are yes or no findings as the source states them, for the method shown. Some entries that bind do so weakly or less than the wild type. Sequences can lack the tags named with a protein.

Protein sequences, listed by entry. Tags and fused reporters are not part of them. Residues count along the entry.
UniProt Q9NZQ7, residues 19-290: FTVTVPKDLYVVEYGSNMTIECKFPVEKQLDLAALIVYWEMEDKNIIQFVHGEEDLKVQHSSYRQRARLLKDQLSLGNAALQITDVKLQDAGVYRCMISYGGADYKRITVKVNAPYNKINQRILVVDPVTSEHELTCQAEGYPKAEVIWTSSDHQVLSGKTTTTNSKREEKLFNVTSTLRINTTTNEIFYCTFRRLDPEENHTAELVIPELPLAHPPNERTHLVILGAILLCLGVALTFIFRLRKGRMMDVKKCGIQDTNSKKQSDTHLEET

How the values were obtained:
[1] = biological target: human PD-L1 on CHOS cells overexpressing PD-L1 (CHOS-PD-L1) (human) (UniProt Q9NZQ7); test: FACS on CHOS-PD-L1 cells
[2] = biological target: human PD-L1 on CHOS cells overexpressing PD-L1 (CHOS-PD-L1) (human) (UniProt Q9NZQ7); test: FACS on CHOS-PD-L1 cells, detection with PE-conjugated anti-human Fc antibody

binding [1]: binds | binding [2]: binds
B1: anti-PD-L1 humanized Nb-Fc antibody (Fc fusion)
chain: QVQLQESGGGLVQPGGSLRLSCAASAYTISRNSMGWFRQAPGKGLEGVAAIESDGSTSYSDSVKGRFTISLDNSKNTLYLEMNSLRAEDTAVYYCAAPKVGLGPRTALGHLAFMTLPALNYWGQGTLVTVSS
notes: The VHH is inferred from the words 'parent antibody' / 'parental anti-PD-L1 antibody'; also called anti-humanized Nb-Fc; parental anti-PD-L1 antibody; not shown: the antibody was obtained according to ZL201710657665.3
